Results are given in words; binding and its absence hold for the method and conditions named. Binding seen in cells or lysates may run through a third protein. Some entries that bind do so weakly or less than the wild type. Sequences can lack the tags named with a protein.
T1: GFP-Ait1 (S. cerevisiae) (UniProt Q12301)
T1 sequence: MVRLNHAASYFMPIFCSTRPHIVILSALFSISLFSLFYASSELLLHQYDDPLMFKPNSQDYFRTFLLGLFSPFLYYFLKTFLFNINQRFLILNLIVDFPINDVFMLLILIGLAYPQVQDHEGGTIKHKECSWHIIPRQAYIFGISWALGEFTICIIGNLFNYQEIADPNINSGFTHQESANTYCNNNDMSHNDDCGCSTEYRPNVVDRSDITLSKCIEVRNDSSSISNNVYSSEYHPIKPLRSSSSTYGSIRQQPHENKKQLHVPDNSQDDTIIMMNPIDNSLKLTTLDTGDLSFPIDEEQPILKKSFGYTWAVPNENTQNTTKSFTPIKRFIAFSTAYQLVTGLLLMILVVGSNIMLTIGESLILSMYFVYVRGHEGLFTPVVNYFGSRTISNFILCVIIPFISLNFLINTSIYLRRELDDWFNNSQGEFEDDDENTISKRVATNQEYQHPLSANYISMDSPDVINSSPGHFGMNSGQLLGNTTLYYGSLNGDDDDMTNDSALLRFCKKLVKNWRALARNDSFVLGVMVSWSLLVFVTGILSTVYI

Chains of the proteins cited; added tags and fusions are not shown.
UniProt P38873: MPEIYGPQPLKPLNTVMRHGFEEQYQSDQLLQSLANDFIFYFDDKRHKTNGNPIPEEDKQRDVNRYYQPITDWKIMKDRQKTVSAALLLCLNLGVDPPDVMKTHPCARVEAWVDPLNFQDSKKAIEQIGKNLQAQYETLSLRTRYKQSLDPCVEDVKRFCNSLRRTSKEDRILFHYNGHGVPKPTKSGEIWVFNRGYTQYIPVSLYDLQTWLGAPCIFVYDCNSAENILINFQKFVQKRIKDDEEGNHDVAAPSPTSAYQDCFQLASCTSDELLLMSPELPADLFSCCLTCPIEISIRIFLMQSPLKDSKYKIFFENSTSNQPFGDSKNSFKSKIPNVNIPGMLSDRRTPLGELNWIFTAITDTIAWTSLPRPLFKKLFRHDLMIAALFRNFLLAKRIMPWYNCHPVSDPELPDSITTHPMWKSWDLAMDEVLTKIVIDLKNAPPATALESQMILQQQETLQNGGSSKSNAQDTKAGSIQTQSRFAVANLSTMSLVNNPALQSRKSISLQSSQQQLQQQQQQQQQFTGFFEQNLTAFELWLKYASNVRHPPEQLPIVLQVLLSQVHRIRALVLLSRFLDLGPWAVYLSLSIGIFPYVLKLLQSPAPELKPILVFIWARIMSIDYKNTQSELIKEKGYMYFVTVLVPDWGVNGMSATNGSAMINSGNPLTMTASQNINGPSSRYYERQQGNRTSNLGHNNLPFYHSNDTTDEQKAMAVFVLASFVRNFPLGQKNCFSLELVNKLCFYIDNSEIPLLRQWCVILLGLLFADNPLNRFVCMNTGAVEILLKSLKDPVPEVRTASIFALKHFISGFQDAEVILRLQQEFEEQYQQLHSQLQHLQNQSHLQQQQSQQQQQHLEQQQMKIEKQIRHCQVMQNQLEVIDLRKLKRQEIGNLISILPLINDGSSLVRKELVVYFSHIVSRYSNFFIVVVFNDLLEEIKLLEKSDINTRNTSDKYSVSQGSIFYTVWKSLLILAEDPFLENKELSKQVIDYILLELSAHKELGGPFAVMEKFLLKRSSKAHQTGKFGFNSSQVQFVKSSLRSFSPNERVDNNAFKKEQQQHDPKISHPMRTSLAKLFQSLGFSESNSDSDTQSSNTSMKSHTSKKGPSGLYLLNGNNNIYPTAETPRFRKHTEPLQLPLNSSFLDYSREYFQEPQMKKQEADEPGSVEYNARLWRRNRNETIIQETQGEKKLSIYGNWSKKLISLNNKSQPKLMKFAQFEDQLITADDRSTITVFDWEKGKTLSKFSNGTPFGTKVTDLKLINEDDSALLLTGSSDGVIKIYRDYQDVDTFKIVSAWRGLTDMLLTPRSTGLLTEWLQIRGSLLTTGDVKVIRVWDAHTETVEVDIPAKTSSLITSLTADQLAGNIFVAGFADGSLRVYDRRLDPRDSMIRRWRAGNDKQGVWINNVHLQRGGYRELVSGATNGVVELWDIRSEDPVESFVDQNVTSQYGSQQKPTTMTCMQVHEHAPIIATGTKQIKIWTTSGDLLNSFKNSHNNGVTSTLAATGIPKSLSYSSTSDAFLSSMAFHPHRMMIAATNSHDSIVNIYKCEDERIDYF


Columns and labels:
[1] = target: T1, GFP-Ait1 (S. cerevisiae); experiment: co-IP; GFP-Ait1 or GFP-Ait1C3v2 immunopurified on anti-GFP beads in nonionic detergent (digitonin) without a crosslinker; blot with anti-Myc and anti-GFP; log phase, 30 min amino acid starvation, long-term amino acid and glucose starvation
[2] = target: Kog1-FLAG (S. cerevisiae) (UniProt P38873); experiment: co-IP; Kog1-FLAG immunopurified on anti-FLAG beads after DSP crosslinking; blot with anti-GFP and anti-FLAG; with and without amino acids, long-term amino acid and glucose starvation, also with 4x protease inhibitors

binding [1]	binding [2]	Binder
binds		Gtr1-myc (natural protein, S. cerevisiae, UniProt Q00582 1-310, looked up, Gtr1, small GTPase (homolog of RagA/B), S. cerevisiae; also called Gtr1/2; source: S. cerevisiae (W303) strain carrying Gtr1-myc, in lysate) MSSNNRKKLLLMGRSGSGKSSMRSIIFSNYSAFDTRRLGATIDVEHSHLRFLGNMTLNLWDCGGQDVFMENYFTKQKDHIFQMVQVLIHVFDVESTEVLKDIEIFAKALKQLRKYSPDAKIFVLLHKMDLVQLDKREELFQIMMKNLSETSSEFGFPNLIGFPTSIWDESLYKAWSQIVCSLIPNMSNHQSNLKKFKEIMNALEIILFERTTFLVICSSNGENSNENHDSSDNNNVLLDPKRFEKISNIMKNFKQSCTKLKSGFKTLILNNNIYVSELSSNMVCFIVLKDMNIPQELVLENIKKAKEFFQ
	binds	GFP-Ait1 (natural protein, S. cerevisiae, UniProt Q12301 1-547, looked up, Ait1 (Ydl180w), GPCR-like protein of the vacuolar membrane, S. cerevisiae; The strain list is in Supplementary file 3; source: S. cerevisiae (W303) strain carrying GFP-Ait1, in lysate; not shown: GFP, N-terminal, kept) MVRLNHAASYFMPIFCSTRPHIVILSALFSISLFSLFYASSELLLHQYDDPLMFKPNSQDYFRTFLLGLFSPFLYYFLKTFLFNINQRFLILNLIVDFPINDVFMLLILIGLAYPQVQDHEGGTIKHKECSWHIIPRQAYIFGISWALGEFTICIIGNLFNYQEIADPNINSGFTHQESANTYCNNNDMSHNDDCGCSTEYRPNVVDRSDITLSKCIEVRNDSSSISNNVYSSEYHPIKPLRSSSSTYGSIRQQPHENKKQLHVPDNSQDDTIIMMNPIDNSLKLTTLDTGDLSFPIDEEQPILKKSFGYTWAVPNENTQNTTKSFTPIKRFIAFSTAYQLVTGLLLMILVVGSNIMLTIGESLILSMYFVYVRGHEGLFTPVVNYFGSRTISNFILCVIIPFISLNFLINTSIYLRRELDDWFNNSQGEFEDDDENTISKRVATNQEYQHPLSANYISMDSPDVINSSPGHFGMNSGQLLGNTTLYYGSLNGDDDDMTNDSALLRFCKKLVKNWRALARNDSFVLGVMVSWSLLVFVTGILSTVYI

— paper PMC9499541, “Ait1 regulates TORC1 signaling and localization in budding yeast” (eLife, 2022)
